PubChem BioAssay AID1259308, NCATS – 2017

Test: 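Knock-downs that increase output of a recombinant reporter protein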 (primary screen)
Cell system: human HEK293 embryonic kidney cells stably expressing firefly luciferase (HEK-CMV-Luc2-Hygro)
Reagent: single siRNA against human genes, 0.8 pmol siRNA per well
Timing: 72 h
Detection: 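Reporter luminescence and viable-cell signal on separate replicate plates, given as percent of non-targeting control and median/MAD z-scores, plus per-cell luciferase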
Reading the numbers: total luciferase, z-score and total luciferase, % of control: higher = more reporter protein produced; luciferase per cell, z-score: higher = more reporter output per viable cell; viable cells, % of control: higher = more viable cells
Rule for the call: 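An siRNA counts as active if its total luciferase robust z-score exceeds 3; genes with two or more such siRNAs out of three were retested with fresh siRNAs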
Calls: active = raised luciferase; inactive = no rise
In all, the deposit lists about 59,000 reagents; this is an unselected part. In the full data, about 1,510 (2.6%) are marked active. 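Calls use total luciferase alone and ignore viability, so some active siRNAs may act by altering cell number.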 Reagents against one gene are numbered here.

| gene knocked down | siRNA no. | total luciferase, z-score | total luciferase, % of control | luciferase per cell, z-score | viable cells, % of control | call |
| --- | --- | --- | --- | --- | --- | --- |
| RBBP8 | 1 | 0.81 | 98 | 1.74 | 69.3 | inactive |
| RBBP8 | 2 | 0.106 | 84 | 0.159 | 90 | inactive |
| RBBP8 | 3 | 0.923 | 100 | 1.73 | 71 | inactive |
| SERPINA7 | 1 | -0.0189 | 81.5 | -0.945 | 117 | inactive |
| SERPINA7 | 2 | -1.1 | 60 | -1.36 | 95.9 | inactive |
| SERPINA7 | 3 | -1.42 | 53.7 | -1.41 | 87 | inactive |
| GSDMA | 1 | 0.222 | 86.3 | -0.488 | 110 | inactive |
| GSDMA | 2 | 2.73 | 136 | 2.15 | 86.5 | inactive |
| GSDMA | 3 | -1.89 | 44.3 | -1.88 | 81.2 | inactive |
| AP2A1 | 1 | 0.166 | 85.2 | 0.19 | 90.5 | inactive |
| AP2A1 | 2 | -1.05 | 60.9 | -0.492 | 77.5 | inactive |
| AP2A1 | 3 | -0.605 | 69.9 | -1.43 | 114 | inactive |
| DHRS11 | 1 | 0.867 | 99.1 | 0.938 | 86.5 | inactive |
| DHRS11 | 2 | -0.367 | 74.6 | -0.642 | 98.7 | inactive |
| DHRS11 | 3 | -0.721 | 67.5 | -0.146 | 78.4 | inactive |
| H2BC21 | 1 | -0.949 | 63 | -0.489 | 80.1 | inactive |
| H2BC21 | 2 | 0.838 | 98.6 | 0.678 | 92.1 | inactive |
| H2BC21 | 3 | -0.527 | 71.4 | -1.26 | 111 | inactive |
| CYP2C18 | 1 | -1.11 | 59.8 | -1.24 | 92.6 | inactive |
| CYP2C18 | 2 | 0.133 | 84.5 | -0.195 | 99.4 | inactive |
| CYP2C18 | 3 | -0.622 | 69.5 | -1.17 | 106 | inactive |
| CIAO1 | 1 | 0.557 | 93 | 0.106 | 101 | inactive |
| CIAO1 | 2 | -0.576 | 70.4 | 0.293 | 72.9 | inactive |
| CIAO1 | 3 | 0.274 | 87.3 | -0.0988 | 100 | inactive |
| PHTF2 | 1 | 0.155 | 85 | 0.879 | 75.3 | inactive |
| PHTF2 | 2 | 0.314 | 88.1 | 0.178 | 94 | inactive |
| PHTF2 | 3 | -0.379 | 74.3 | -0.712 | 100 | inactive |
| KCNQ2 | 1 | -0.276 | 76.4 | 0.645 | 72 | inactive |
| KCNQ2 | 2 | 0.459 | 91 | 0.693 | 84.7 | inactive |
| KCNQ2 | 3 | 0.694 | 95.7 | 0.023 | 106 | inactive |
| INTS9 | 1 | 1.25 | 107 | 2.13 | 68.1 | inactive |
| INTS9 | 2 | 0.142 | 84.7 | 0.826 | 76.2 | inactive |
| INTS9 | 3 | 1.68 | 115 | 1.12 | 95.9 | inactive |
| CT55P1 | 1 | -0.77 | 66.6 | -0.279 | 80.1 | inactive |
| CT55P1 | 2 | -0.297 | 76 | -0.067 | 86.4 | inactive |
| CT55P1 | 3 | 1.11 | 104 | 0.603 | 99.1 | inactive |
| DUSP13B | 1 | -0.17 | 78.5 | 0.118 | 85 | inactive |
| DUSP13B | 2 | 1.26 | 107 | 0.931 | 93.6 | inactive |
| DUSP13B | 3 | -0.323 | 75.5 | -0.424 | 94.3 | inactive |
| LOC648999 (retired record) | 1 | 1.77 | 117 | 1.8 | 81.4 | inactive |
| LOC648999 (retired record) | 2 | -0.346 | 75 | -0.608 | 98.4 | inactive |
| LOC648999 (retired record) | 3 | 1.09 | 104 | 0.713 | 96 | inactive |
| TRIM62 | 1 | -2.98 | 22.7 | -3.3 | 60.4 | inactive |
| TRIM62 | 2 | 0.0163 | 82.2 | -0.119 | 94.8 | inactive |
| TRIM62 | 3 | 0.0779 | 83.4 | 0.0282 | 92.5 | inactive |
| POP1 | 1 | 0.309 | 88 | -0.625 | 116 | inactive |
| POP1 | 2 | 0.109 | 84.1 | -0.00538 | 94.1 | inactive |
| POP1 | 3 | -1.81 | 45.8 | -0.833 | 63.7 | inactive |
| H2AX | 1 | 1.88 | 119 | 1.95 | 79.8 | inactive |
| H2AX | 2 | -0.445 | 73 | -0.0792 | 83.3 | inactive |
| H2AX | 3 | 0.368 | 89.2 | 0.858 | 79.5 | inactive |
| IFITM5 | 1 | 0.181 | 85.5 | 0.297 | 88.4 | inactive |
| IFITM5 | 2 | -1.55 | 51 | 0.542 | 49.4 | inactive |
| IFITM5 | 3 | -0.258 | 76.8 | 0.583 | 73.6 | inactive |
| IGFBP7-AS1 | 1 | -0.191 | 78.1 | 0.213 | 82.5 | inactive |
| IGFBP7-AS1 | 2 | 2.77 | 137 | 3.26 | 64.8 | inactive |
| IGFBP7-AS1 | 3 | 1.65 | 115 | 1.3 | 90.9 | inactive |
| ARL10 | 1 | 4.25 | 166 | 2.98 | 84.8 | active |
| ARL10 | 2 | 0.0424 | 82.7 | -0.251 | 98.8 | inactive |
| ARL10 | 3 | -0.113 | 79.6 | -0.618 | 105 | inactive |
| ALDOC | 1 | -0.835 | 65.3 | -0.558 | 84.5 | inactive |
| ALDOC | 2 | 0.85 | 98.8 | 0.268 | 103 | inactive |
| ALDOC | 3 | 0.793 | 97.7 | 0.61 | 92.9 | inactive |
| GAL3ST4 | 1 | -0.0903 | 80.1 | -0.149 | 93.1 | inactive |
| GAL3ST4 | 2 | -0.255 | 76.8 | -0.608 | 101 | inactive |
| GAL3ST4 | 3 | -0.389 | 74.1 | -1.19 | 113 | inactive |
| GALNTL6 | 1 | -0.656 | 68.8 | 0.675 | 64.4 | inactive |
| GALNTL6 | 2 | 0.379 | 89.4 | 0.578 | 85.8 | inactive |
| GALNTL6 | 3 | 0.445 | 90.7 | 0.187 | 96.5 | inactive |
| NR0B1 | 1 | 2.18 | 125 | 1.59 | 92.1 | inactive |
| NR0B1 | 2 | -0.898 | 64 | -0.917 | 91.1 | inactive |
| NR0B1 | 3 | 1.21 | 106 | 0.617 | 101 | inactive |
| SRSF8CP | 1 | 0.638 | 94.6 | 0.0948 | 103 | inactive |
| SRSF8CP | 2 | 0.113 | 84.1 | 0.0902 | 91.8 | inactive |
| SRSF8CP | 3 | -2.41 | 34 | -1.56 | 57.2 | inactive |

Ordered by “luciferase per cell, z-score” (low to high): 12 of the entries above
| gene knocked down | siRNA no. | total luciferase, z-score | total luciferase, % of control | luciferase per cell, z-score | viable cells, % of control | call |
| --- | --- | --- | --- | --- | --- | --- |
| GAL3ST4 | 3 | -0.389 | 74.1 | -1.19 | 113 | inactive |
| ARL10 | 3 | -0.113 | 79.6 | -0.618 | 105 | inactive |
| GAL3ST4 | 2 | -0.255 | 76.8 | -0.608 | 101 | inactive |
| ALDOC | 1 | -0.835 | 65.3 | -0.558 | 84.5 | inactive |
| ARL10 | 2 | 0.0424 | 82.7 | -0.251 | 98.8 | inactive |
| GAL3ST4 | 1 | -0.0903 | 80.1 | -0.149 | 93.1 | inactive |
| IGFBP7-AS1 | 1 | -0.191 | 78.1 | 0.213 | 82.5 | inactive |
| ALDOC | 2 | 0.85 | 98.8 | 0.268 | 103 | inactive |
| ALDOC | 3 | 0.793 | 97.7 | 0.61 | 92.9 | inactive |
| IGFBP7-AS1 | 3 | 1.65 | 115 | 1.3 | 90.9 | inactive |
| ARL10 | 1 | 4.25 | 166 | 2.98 | 84.8 | active |
| IGFBP7-AS1 | 2 | 2.77 | 137 | 3.26 | 64.8 | inactive |
